# According to the supplement of paper PMC9135407:
# “And” between values parts separate entries of the source, which are not always exact repeats. Equal entries are not always repeated. Structures can show the parent of a compound that is named as a salt. ± gives the standard deviation of the averaged measurements. Some of the results follow. Part of the spread comes from offsets between plates or batches.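 Culture-activated primary human stellate myofibroblasts, where regained lipid droplets signal inactivation. Value: share of Hoechst-counted cells above a per-plate Bodipy cutoff, in duplicate wells, with DMSO negative and nortriptyline positive controls on each plate. Hits: a control-normalized score above the plate's top-tenth-percentile nortriptyline wells, or one of a plate's three best wells. Final well concentrations are not given.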
# Tested on: primary human hepatic stellate cells (donor 1)
# Assay: percent Bodipy-positive cells; higher = more lipid droplet accumulation
# Conditions: 48 h
# [1] = library stock concentration: 10 mM
# [2] = library stock concentration: 3.33 mM
compound,measurement,setting,value
Oc1ccc2c3c1O[C@H]1[C@@H](O)CC[C@@]4(O)[C@@H](C2)N(CC2CCC2)CC[C@]314 [Nalbuphine],percent Bodipy-positive cells,[1],16.2 ± 2.6%
Oc1ccc2c3c1O[C@H]1[C@@H](O)CC[C@@]4(O)[C@@H](C2)N(CC2CCC2)CC[C@]314 [Nalbuphine hydrochloride],percent Bodipy-positive cells,,33.4 ± 20%
same,percent Bodipy-positive cells,library stock concentration: 5.1 mM,29.5 ± 11%
same,percent Bodipy-positive cells,[1],31.1 ± 13%
O=C1CN=C(c2cccc(Br)c2)c2oc3ccccc3c2N1,percent Bodipy-positive cells,[1],21.5 ± 0.7%
COC1=CC(=O)O[C@@H](/C=C/c2ccccc2)C1 [Kawain],percent Bodipy-positive cells,,34.5 ± 3.7%
COC1=CC(=O)O[C@@H](/C=C/c2ccccc2)C1 (racemic) [Kavain (+/-)],percent Bodipy-positive cells,library stock concentration: 21.7 mM,31.1 ± 7.2%
O=C(O)CC[N+](=O)[O-] [3-Nitropropionic acid],percent Bodipy-positive cells,[1],25.7 ± 6.8%
CN1CCc2cc3c(cc2[C@H]1[C@@H]1OC(=O)c2c1ccc1c2OCO1)OCO3 [Bicuculline (+)],percent Bodipy-positive cells,,25.4 ± 0.74%
OCc1cnc[nH]1 [4-Imidazolemethanol hydrochloride],percent Bodipy-positive cells,[1],54.7 ± 4.7%
CO[C@H]1[C@H](O)[C@@H](O[C@H]2CC[C@]3(C=O)C4CC[C@]5(C)[C@@H](C6=CC(=O)OC6)CC[C@]5(O)C4CC[C@@H]3C2)O[C@@H](C)[C@@H]1O (stereo not given in full) [Peruvoside],percent Bodipy-positive cells,[1],96.05 ± 0.25%
CC(=O)O[C@H]1CC[C@@]2(C)C(=CC[C@@H]3[C@@H]2CC[C@]2(C)C(=O)CC[C@@H]32)C1 [Prasterone acetate],percent Bodipy-positive cells,[1],46.3 ± 5.2%
CC(=O)O[C@H]1CC[C@@]2(C)C(=CC[C@@H]3[C@@H]2CC[C@]2(C)C(=O)CC[C@@H]32)C1 [Dehydroisoandosterone 3-acetate],percent Bodipy-positive cells,,9.79 ± 4.3%
O=C(NCNC(=O)NC1C(=O)NC(=O)N1CO)NC1C(=O)NC(=O)N1CO (stereo not given) [Imidurea],percent Bodipy-positive cells,,10.9 ± 2.5%
O=[N+]([O-])c1ncc[nH]1 [Azomycin],percent Bodipy-positive cells,[2],8.75 ± 2.5%
same,percent Bodipy-positive cells,[1],12.4 ± 2.1%
CO/C1=C\C(C)=C\[C@@H](C)[C@@H](O)[C@@H](C)C/C(C)=C/C=C/[C@H](OC)[C@@H]([C@@H](C)[C@@H](O)[C@H](C)[C@@]2(O)C[C@@H](O)[C@H](C)[C@@H](C(C)C)O2)OC1=O [Bafilomycin A1],percent Bodipy-positive cells,library stock concentration: 800 uM,98.81 ± 0.93%
CN1C[C@H](CNC(=O)OCc2ccccc2)C[C@@H]2c3cccc4c3c(cn4C)C[C@H]21 [Metergoline],percent Bodipy-positive cells,[1],98.5 ± 1.1%
CCCCCCCC/C=C\CCCCCCCC(=O)Nc1ccccc1 [Oleyl Anilide],percent Bodipy-positive cells,library stock concentration: 1 mM,12.8 ± 2.5%
C[C@H](CCC(=O)O)C[C@H](C)C[C@H](C)C(=O)/C=C(\O)[C@H](C)C[C@H](C)C/C=C/[C@@H](C)[C@@H](O)[C@@H](C)[C@@H](O)C[C@@H]1CC[C@@](C)([C@H]2CC[C@@](C)([C@@H](C)O)O2)O1 [Ionomycin],percent Bodipy-positive cells,library stock concentration: 7.1 mM,79.77 ± 0.32%
C[C@@H]1CC[C@@]2(OC1)O[C@H]1C[C@H]3[C@@H]4CC=C5C[C@@H](O[C@@H]6O[C@H](CO)[C@@H](O[C@@H]7O[C@@H](C)[C@H](O)[C@@H](O)[C@H]7O)[C@H](O)[C@H]6O[C@@H]6O[C@@H](C)[C@H](O)[C@@H](O)[C@H]6O)CC[C@]5(C)[C@H]4CC[C@]3(C)[C@H]1[C@@H]2C [Dioscin],percent Bodipy-positive cells,[2],98.7 ± 1.9%
same,percent Bodipy-positive cells,[1],100%
C=CCN1CC[C@]23c4c5ccc(O)c4O[C@H]2C(=O)CC[C@@]3(O)[C@H]1C5 [Naloxone hydrochloride],percent Bodipy-positive cells,,20.6 ± 5.6%
same,percent Bodipy-positive cells,[1],11.5% and 25.2% and 8.47%
C=CCN1CC[C@]23c4c5ccc(O)c4O[C@H]2C(=O)CC[C@@]3(O)[C@H]1C5,percent Bodipy-positive cells,[1],35.7 ± 11%
C=CCN1CC[C@]23c4c5ccc(O)c4O[C@H]2C(=O)CC[C@@]3(O)[C@H]1C5 [Naloxone HCl],percent Bodipy-positive cells,library stock concentration: 6.1 mM,7.23 ± 2.6%
NC(=O)c1cc(N2CC2)c([N+](=O)[O-])cc1[N+](=O)[O-],percent Bodipy-positive cells,[1],41.4 ± 15%
Cn1cc(C2=C(c3cn(C4CCN(Cc5ccccn5)CC4)c4ccccc34)C(=O)NC2=O)c2ccccc21,percent Bodipy-positive cells,library stock concentration: 80 uM,12.5 ± 5.9%
same,percent Bodipy-positive cells,library stock concentration: 400 uM,11.6 ± 3.6%
same,percent Bodipy-positive cells,library stock concentration: 2 mM,9.67 ± 1.5%
same,percent Bodipy-positive cells,[2],6.99 ± 3.2%
same,percent Bodipy-positive cells,[1],11.7% and 15.1%
O=c1n(Cl)c(=O)n(Cl)c(=O)n1Cl,percent Bodipy-positive cells,[1],29.3 ± 1.8%
CP(=O)(O)C1=CCNCC1,percent Bodipy-positive cells,[1],13.9 ± 0.31%
C[C@@H]1O[C@H](C[N+](C)(C)C)C[C@H]1O [(?)-Muscarine chloride],percent Bodipy-positive cells,[1],48.6 ± 3.1%
CCCCC[C@@H](/C=C/C=C\C/C=C\C/C=C\CCCC(=O)O)OO,percent Bodipy-positive cells,library stock concentration: 100 uM,7.24 ± 4.6%
CCCC(C)C1(CC)C(=O)NC(=O)NC1=O (stereo not given) [Pentobarbital],percent Bodipy-positive cells,library stock concentration: 8.8 mM,2.97 ± 0.14%
C=CCc1ccc2c(c1)OCO2 [Safrole],percent Bodipy-positive cells,[1],29.3 ± 0.45%
COP(=O)(OC)C(O)C(Cl)(Cl)Cl (stereo not given) [Trichlorfon],percent Bodipy-positive cells,,31.5 ± 5.7%
C[C@]12C[C@H]3S[C@H]3C[C@@H]1CC[C@@H]1[C@@H]2CC[C@]2(C)[C@@H](O)CC[C@@H]12 [Epitiostanol],percent Bodipy-positive cells,,11.2 ± 3.7%

# Reprinted from above (eleven entries):
compound,measurement,setting,value
Oc1ccc2c3c1O[C@H]1[C@@H](O)CC[C@@]4(O)[C@@H](C2)N(CC2CCC2)CC[C@]314 [Nalbuphine],percent Bodipy-positive cells,[1],16.2 ± 2.6%
Oc1ccc2c3c1O[C@H]1[C@@H](O)CC[C@@]4(O)[C@@H](C2)N(CC2CCC2)CC[C@]314 [Nalbuphine hydrochloride],percent Bodipy-positive cells,,33.4 ± 20%
same,percent Bodipy-positive cells,library stock concentration: 5.1 mM,29.5 ± 11%
same,percent Bodipy-positive cells,[1],31.1 ± 13%
O=C1CN=C(c2cccc(Br)c2)c2oc3ccccc3c2N1,percent Bodipy-positive cells,[1],21.5 ± 0.7%
COC1=CC(=O)O[C@@H](/C=C/c2ccccc2)C1 [Kawain],percent Bodipy-positive cells,,34.5 ± 3.7%
COC1=CC(=O)O[C@@H](/C=C/c2ccccc2)C1 (racemic) [Kavain (+/-)],percent Bodipy-positive cells,library stock concentration: 21.7 mM,31.1 ± 7.2%
O=C(O)CC[N+](=O)[O-] [3-Nitropropionic acid],percent Bodipy-positive cells,[1],25.7 ± 6.8%
CN1CCc2cc3c(cc2[C@H]1[C@@H]1OC(=O)c2c1ccc1c2OCO1)OCO3 [Bicuculline (+)],percent Bodipy-positive cells,,25.4 ± 0.74%
OCc1cnc[nH]1 [4-Imidazolemethanol hydrochloride],percent Bodipy-positive cells,[1],54.7 ± 4.7%
CO[C@H]1[C@H](O)[C@@H](O[C@H]2CC[C@]3(C=O)C4CC[C@]5(C)[C@@H](C6=CC(=O)OC6)CC[C@]5(O)C4CC[C@@H]3C2)O[C@@H](C)[C@@H]1O (stereo not given in full) [Peruvoside],percent Bodipy-positive cells,[1],96.05 ± 0.25%
